# Measured values from the supplement of paper PMC11237882.
# Some of the results follow. Values are worked out from sequencing counts and are noisy.
# T1: Homer1 EVH1 domain
# T1 chain: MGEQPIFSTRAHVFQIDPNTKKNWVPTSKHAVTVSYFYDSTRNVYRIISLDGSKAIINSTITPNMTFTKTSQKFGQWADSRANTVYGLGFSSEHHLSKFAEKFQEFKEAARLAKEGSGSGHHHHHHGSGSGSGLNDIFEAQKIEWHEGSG
# B1: unnamed (peptide)
# chain: RKLGIVCLLSYLGLATLSVLYELGIIGNNKIRSCGG
# B2: unnamed (peptide)
# chain: LFMPICATYLLIFVVGAMGNGLTCLVILRHKAMRTP
# B3: unnamed (peptide)
# chain: VGTATFLRGVLLIIPFTFLTKRLPYCRGNILPHTYC
# B4: unnamed (peptide)
# chain: ICLSGLGLFILYLFYIVLTLYSSPTEKNNDTQKHQG
# B5: unnamed (peptide)
# chain: RITSMDARGSTSAISNVHPMSSYMPIVLFLIVYVLW
# B6: unnamed (peptide)
# chain: GFVPYIGIGTSIMNDYPKHKYEVLFLLGLFVLVHRE
# B7: unnamed (peptide)
# chain: MESERSKRMGNACIPLKRIAYFLCLLSALLLTEGKK
# B8: unnamed (peptide)
# chain: MDFLVLFLFYLASVLMGLVLICVCSKTHSLKGLARG
# B9: unnamed (peptide)
# chain: PKGVGAIYIRRRPRVRVEALQSGGGQERGMRSGTVP
# B10: unnamed (peptide)
# chain: GAGADEGVRRSLSPELREGDPSSSQHLPSTPSSPRV
# B11: unnamed (peptide)
# chain: YFTIQNPSNVDHYSKLLFPLIFMLANVFYWAYYMYF
# B12: unnamed (peptide)
# chain: KNAWKNNVFFSWSYFSGWLALPFSILAGFCFLLADM
# Target: T1, Homer1 EVH1 domain
# Test: enrichment score (AUC of log2 frequency ratio across FACS sorting rounds) (log2 AUC); higher = stronger enrichment for Homer1 EVH1 binding
row,Binder,enrichment score
1,B1,2.7
2,B2,2.13
3,B3,1.68
4,B4,2.28
5,B5,0.45
6,B6,3.39
7,B7,-1.6
8,B8,0.998
9,B9,-0.243
10,B10,0.903
11,B11,0.778
12,B12,3.62
